Literature values, collected in patent US8895054B2, “Methods for joint lubrication and cartilage wear prevention making use of glycerophospholipids” (Technion Research and Development Foundation Ltd., priority 2006, dated 2014).
Some of these results come from one statement about several compounds together.

Conditions: below the Tm in the SO phase; cited from earlier work

Structure (SMILES): CCCCCCCCCCCCCC(=O)OC[C@H](COP(=O)([O-])OCC[N+](C)(C)C)OC(=O)CCCCCCCCCCCCC [DMPC, 1,2-dimyristoyl-sn-glycero-3-phosphocholine]
- water molecules per headgroup: < 4.3 water molecules per headgroup

Structure (SMILES): CCCCCCCCCCCCCCCC(=O)OC[C@H](COP(=O)([O-])OCC[N+](C)(C)C)OC(=O)CCCCCCCCCCCCCCC [DPPC, 1,2-dipalmitoyl-sn-glycero-3-phosphocholine]
- water molecules per headgroup: < 4.3 water molecules per headgroup
